Source: PubChem BioAssay AID504834 (National Center for Advancing Translational Sciences (NCATS), 2011)
About 22,000 (6.9%) of roughly 320,000 compounds were called active. The inconclusive results got no clear call from the source; some entries with a clear call stand among them for comparison. Calls follow the shape of the dose curve; as a rule, active = well fitted inhibition curve with a large enough effect; inconclusive = small, poorly fitted or top-dose-only effect, or another doubt; inactive = no such curve, though single readings can be large or run the other way. A potency beside an inconclusive call is a rough fit, not a confirmed value.

Assay: Primary qHTS for delayed death inhibitors of the malarial parasite plastid, 96 hour incubation
Details: P. falciparum luciferase reporter growth; series mostly up to 28.7 µM
Summary of the method: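 Readout is luminescence from an integrated firefly luciferase in P. falciparum. Red cells, 2% hematocrit and 0.05% parasitemia final, were cultured with compound through two parasite generations (96 hours) at 37 C, 5% CO2.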
Potency is read from the fitted curve at half-maximal effect.

Q: With `Cc1cc(C(=O)NC2CCCc3ccccc32)ccc1[N+](=O)[O-]` (stereo not given) as the compound, how does the Potency read?
A: inconclusive: 20.8 µM [inhibitor, single point]

Q: With `C=CCNC(=S)N/N=C(\C)c1ccccn1` as the compound, how does the Potency read?
A: active: 0.0029 µM

Q: With `COc1ccc(CNC(=O)C2CC(c3cccc([N+](=O)[O-])c3)=NO2)cc1` (stereo not given) as the compound, how does the Potency read?
A: inactive

Q: With `CC1CN=C(NCc2ccccc2)S1` (stereo not given) as the compound, how does the Potency read?
A: inconclusive: 0.0329 µM [inhibitor, full curve, poor fit]

Q: With `COC(=O)c1c(C(=O)OC)c(-c2ccccc2)n2c1CS(=O)C2` (stereo not given) as the compound, how does the Potency read?
A: inconclusive: 18.5 µM [inhibitor, single point]

Q: For `COc1cccc(NC(=O)CN(C)C(=O)c2cc(-c3ccc(C)o3)nc3ccccc23)c1`, which Potency is on record?
A: active: 9.28 µM

Q: For `Clc1ccc(Nc2nc(N3CCOCC3)nc(N3CCOCC3)n2)cc1Cl`, which Potency is on record?
A: active: 13.1 µM

Q: With `O=C(CSc1ncn[nH]1)Nc1ccccc1Sc1ccccc1` as the compound, how does the Potency read?
A: inconclusive: 13.1 µM [inhibitor, partial curve, poor fit]

Q: With `O=C(CSc1nc(C2CC2)nc2ccccc12)N1CCCCC1` as the compound, how does the Potency read?
A: inactive

Q: Which Potency does the source give for `NS(=O)(=O)c1ccc(CCNC(=O)C2CC(=O)N(Cc3ccccc3Cl)C2)cc1` (stereo not given) here?
A: inactive

Q: For `COc1ccccc1NC(=S)N(Cc1ccc(C(=O)O)cc1)Cc1ccc(OC)c(OC)c1`, which Potency is on record?
A: inconclusive: 1.85 µM [inhibitor, partial curve, poor fit]

Q: Which Potency does the source give for `COc1ccc(-c2cc(C(=O)N3CCN(S(=O)(=O)c4ccccc4)CC3)[nH]n2)cc1` here?
A: inactive

Q: For `CCNC(=S)N(CCc1c(C)[nH]c2ccccc12)Cc1cc(OC)c(OC)c(OC)c1`, which Potency is on record?
A: inconclusive: 14.7 µM [inhibitor, partial curve, poor fit]

Q: For `CCCS(=O)(=O)N1CCC(C(=O)N2CCCC2)CC1`, which Potency is on record?
A: active: 11.7 µM

Q: Which Potency does the source give for `CCOC(=O)c1c(NC(=O)/C=C/C(=O)O)sc(C)c1-c1ccc(Cl)cc1` here?
A: inconclusive: 14.7 µM [inhibitor, single point]

Q: For `S=C(NCC(c1ccco1)N1CCCC1)Nc1ccccc1` (stereo not given), which Potency is on record?
A: inconclusive: 4.15 µM [inhibitor, full curve, poor fit]

Q: For `Cc1ccc(C(O)(C(=O)NN(C(=O)c2ccccc2)c2ccccc2)c2ccc(C)cc2)cc1`, which Potency is on record?
A: inactive

Q: With `O=C1CN(C(=O)COc2ccccc2)c2ccccc2N1` as the compound, how does the Potency read?
A: inconclusive: 18.5 µM [inhibitor, single point]

Q: With `CC(Oc1ccc2c(-c3ccccc3)cc(=O)oc2c1)C(=O)NCCCN1CCOCC1` (stereo not given) as the compound, how does the Potency read?
A: inconclusive: 18.5 µM [inhibitor, single point]

Q: With `CCOC(=O)N1CCC(NC(=O)CN2C(=O)C(CC)Oc3ccc(C)cc32)CC1` (stereo not given) as the compound, how does the Potency read?
A: inconclusive: 0.37 µM [inhibitor, full curve, poor fit]

Q: With `O=C(c1cccnc1)N1CCN(C/C=C/c2ccccc2)CC1` as the compound, how does the Potency read?
A: inactive

Q: Which Potency does the source give for `Cn1nnnc1SCC(=O)Nc1ccccc1N1CCOCC1` here?
A: inconclusive: 2.08 µM [inhibitor, partial curve, poor fit]

Q: Which Potency does the source give for `COc1ccc(C2c3[nH]c4ccccc4c3C[C@H]3C(=O)N(c4ccccc4C(=O)NCCN4CCOCC4)C(=O)N23)cc1` (stereo not given in full) here?
A: inconclusive: 9.28 µM [inhibitor, partial curve, poor fit]

Q: For `CCOc1ccccc1NS(=O)(=O)c1ccc(-n2cccn2)cc1`, which Potency is on record?
A: inconclusive: 11.7 µM [inhibitor, single point]

Q: Which Potency does the source give for `C=CCNC(=O)C1CCN(c2c([N+](=O)[O-])cc(C(F)(F)F)cc2[N+](=O)[O-])CC1` here?
A: active: 9.28 µM

Q: For `Cc1nn(Cc2ccc(F)cc2)c(C)c1NC(=O)c1cc(-c2ccc3c(c2)OCO3)on1`, which Potency is on record?
A: inconclusive: 11.7 µM [inhibitor, single point]

Q: With `CC1CC(NC(=O)N(C)C)N(C)C(=O)N1` (stereo not given) as the compound, how does the Potency read?
A: inactive

Q: For `Cc1nc(CSc2nsc(/C=C/N(C)C)c2C#N)cs1`, which Potency is on record?
A: active: 9.28 µM

Q: For `OCCC1CN(Cc2ccccc2-c2ccco2)CCN1Cc1ccccc1` (stereo not given), which Potency is on record?
A: active: 9.28 µM

Q: With `CCOC(=O)c1ccc(C#Cc2ccc3c(c2)C(C)(C)CCS3)nc1` as the compound, how does the Potency read?
A: inconclusive: 13.5 µM [inhibitor, single point]

Q: For `CCCc1nc2c(c(=O)c3ccccc3n2C)c(=O)n1-c1ccc(F)cc1`, which Potency is on record?
A: inconclusive: 8.28 µM [inhibitor, partial curve, poor fit]

Q: For `CC(C)N(CCC(=O)c1ccc2ccccc2c1)Cc1ccccc1`, which Potency is on record?
A: inactive

Q: Which Potency does the source give for `CCCCNCCOCCSc1ccc(Cl)cc1` here?
A: inactive

Q: With `O=[N+]([O-])c1ccc(NCCCN2CCOCC2)c2ncccc12` as the compound, how does the Potency read?
A: inconclusive: 9.28 µM [inhibitor, single point]

Q: With `CCCC1(c2ccccc2)NC(=O)N(CCN2C(=O)c3ccccc3C2=O)C1=O` (stereo not given) as the compound, how does the Potency read?
A: inconclusive: 14.7 µM [inhibitor, partial curve]

Q: Which Potency does the source give for `COc1cccc(N(CC(=O)NCc2ccco2)C(=O)CCC(=O)Nc2nccs2)c1` here?
A: inconclusive: 10.4 µM [inhibitor, single point]

Q: Which Potency does the source give for `COCCNC(=S)N=Nc1c(O)[nH]c2ccc([N+](=O)[O-])cc12` here?
A: inconclusive: 1.47 µM [inhibitor, partial curve]

Q: With `COc1ccc(CNC(=O)CN(Cc2ccc(OC)cc2)C(=O)c2csnn2)cc1` as the compound, how does the Potency read?
A: inactive

Q: Which Potency does the source give for `CC(C)NC(=O)C(C)n1cccc1C(=O)c1ccccc1` (stereo not given) here?
A: inconclusive: 5.22 µM [inhibitor, partial curve, poor fit]

Q: Which Potency does the source give for `CCOc1ccccc1NC(=O)CCCc1ccc(OC)c(C)c1` here?
A: inconclusive: 11.7 µM [inhibitor, single point]

Q: With `CCNC(=S)N1CCc2cc(OC)c(OC)cc2C1COc1ccccc1OC` (stereo not given) as the compound, how does the Potency read?
A: inactive

Q: With `COc1ccc2c(c1OC)C(=O)N1N=C(c3ccccc3)CC21` (stereo not given) as the compound, how does the Potency read?
A: inconclusive: 1.65 µM [inhibitor, full curve]

Q: Which Potency does the source give for `COc1cccc(CN(C)CC2CCCN(CCc3ccccc3C)C2)c1` (stereo not given) here?
A: inconclusive: 18.5 µM [inhibitor, partial curve, poor fit]

Q: With `COc1ccc([C@H]2CC(=O)C=C(c3ccccc3C(F)(F)F)C2)cc1` as the compound, how does the Potency read?
A: inconclusive: 20.8 µM [inhibitor, partial curve, poor fit]

Q: With `O=C(c1ccc(F)cc1F)N1CCN(S(=O)(=O)c2ccc3c(c2)OCCO3)CC1` as the compound, how does the Potency read?
A: active: 9.28 µM
